Measured data: PubChem BioAssay AID1259308 (NCATS, 2017)
Here is a random part of about 59,000 reagents. About 1,510 of all reagents (2.6%) were called active. 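Calls use total luciferase alone and ignore viability, so some active siRNAs may act by altering cell number.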 Unmarked entries are inactive. Further read-outs or replicates are left out here.

- Screen: 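Knock-downs that increase output of a recombinant reporter protein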 (primary screen)
- Cells: human HEK293 embryonic kidney cells stably expressing firefly luciferase (HEK-CMV-Luc2-Hygro)
- Knock-down reagent: single siRNA against human genes, 0.8 pmol siRNA per well
- Duration: 72 h
- Measurement: 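Luciferase light (ONE-Glo) measured on one replicate plate set and viability (CellTiter-Glo) on the other, scaled to a negative control siRNA, with robust z-scores and luciferase per cell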
- Reading the numbers: total luciferase, z-score: higher = more reporter protein produced
- Rule for the call: 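Active when the median/MAD z-score for overall luciferase is greater than 3; a gene was taken forward for validation with new siRNAs if at least two of its three siRNAs passed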
- Calls: active = raised luciferase; inactive = no rise

total luciferase, z-score | gene knocked down | PubChem SID
2.3 | SPRYD7 | SID160745826
2.07 | SPRYD7 | SID160745827
-0.52 | SPRYD7 | SID160745828
0.00161 | TRPC3 | SID160718357
0.071 | TRPC3 | SID160718358
-0.549 | TRPC3 | SID160718359
1.75 | ITGA11 | SID160736465
-0.852 | ITGA11 | SID160736570
0.988 | ITGA11 | SID160736677
-0.09 | NUS1 | SID160755347
-0.716 | NUS1 | SID160755348
-0.191 | NUS1 | SID160755349
-0.102 | ALMS1 | SID160719391
5.46 (active) | ALMS1 | SID160719392
-0.135 | ALMS1 | SID160719393
-0.162 | DDX20 | SID160730215
-0.294 | DDX20 | SID160730216
0.22 | DDX20 | SID160730217
1.73 | XG | SID160718886
-0.711 | XG | SID160718888
0.123 | XG | SID160718889
-0.0932 | STXBP5L | SID160722390
-1.32 | STXBP5L | SID160722391
0.0709 | STXBP5L | SID160722393
0.0578 | LSM11 | SID160757328
0.634 | LSM11 | SID160757329
-0.705 | LSM11 | SID160757330
0.864 | GET4 | SID160741088
-0.111 | GET4 | SID160741089
0.315 | GET4 | SID160741090
0.0779 | LAPTM4A | SID160722958
-0.0973 | LAPTM4A | SID160722959
0.102 | LAPTM4A | SID160722960
0.0705 | DTD2 | SID160754700
2.06 | DTD2 | SID160754701
-0.516 | DTD2 | SID160754702
0.18 | AGA | SID160715456
-0.6 | AGA | SID160715467
-0.442 | AGA | SID160715478
-0.271 | CELF4 | SID160745195
-0.161 | CELF4 | SID160745196
0.328 | CELF4 | SID160745199

Part of the list above, set out differently.
total luciferase, z-score	gene knocked down	PubChem SID
-0.111	GET4	SID160741089
0.315	GET4	SID160741090
0.0779	LAPTM4A	SID160722958
-0.0973	LAPTM4A	SID160722959

Further reagents follow.
total luciferase, z-score | gene knocked down | PubChem SID
-0.964 | HMGN2P24 | SID160772824
3.52 (active) | HMGN2P24 | SID160772825
-1.25 | HMGN2P24 | SID160772826
-0.133 | COLEC10 | SID160728789
-2.28 | COLEC10 | SID160728790
1.2 | COLEC10 | SID160728791
-2.61 | ACTMAP | SID160763256
-1.45 | ACTMAP | SID160763257
-1.65 | ACTMAP | SID160763258
-2.61 | RPS3A | SID160716131
-2.52 | RPS3A | SID160716132
-2.45 | RPS3A | SID160716134
-0.597 | FHOD3 | SID160750206
-0.499 | FHOD3 | SID160750207
1.06 | FHOD3 | SID160750208
0.283 | KLK1 | SID160776296
0.872 | KLK1 | SID160776297
3.58 (active) | KLK1 | SID160776298
-0.459 | CNTN2 | SID160717723
-1.44 | CNTN2 | SID160717724
-1.63 | CNTN2 | SID160717725
-1.01 | MED9 | SID160742914
-0.654 | MED9 | SID160742915
-1.94 | MED9 | SID160742916
-2.56 | HAUS1 | SID160755145
2.85 | HAUS1 | SID160755146
0.0914 | HAUS1 | SID160755147
-0.905 | THRAP3P1 | SID160766694
0.681 | THRAP3P1 | SID160766695
0.927 | THRAP3P1 | SID160766696
-0.84 | GLRX | SID160771607
0.724 | GLRX | SID160771616
1.31 | GLRX | SID160771625
